Source: patent publication US20090215882A1, “LYOPHILIZED SOLID TAXANE COMPOSITION, A PROCESS FOR PREPARING SAID SOLID COMPOSITION, A PHARMACEUTICAL FORMULATION AND A KIT FOR SAID FORMULATION” (ERIOCHEM, S.A., priority 2006, published 2009)

Assay: Solubility / dissolution in aqueous solutions without organic solvent
Type: physicochemical
Settings: commercially available API, absence of added organic solvents
Method: The intermediate lyophilized taxane is dissolved in aqueous solutions of polymers or a mixture of said polymers, namely Lutrol™ F68, Solutol™ HS15, povidone K12 PF or K17 PF.

## CC(=O)O[C@H]1C(=O)[C@@]2(C)[C@H]([C@H](OC(=O)c3ccccc3)[C@]3(O)C[C@H](OC(=O)[C@H](O)[C@@H](NC(=O)c4ccccc4)c4ccccc4)C(C)=C1C3(C)C)[C@]1(OC(C)=O)CO[C@@H]1C[C@@H]2O [paclitaxel]
  solubility in aqueous solutions: not soluble
